In all, about 360,000 compounds went through this assay and about 7,500 (2.1%) were called active. Inconclusive results, whose numbers are uncertain, are shown with a selection of clear calls. Calls come from the whole dose curve; as a rule, active = well fitted inhibition curve with a large enough effect; inconclusive = small, poorly fitted or top-dose-only effect, or effect the other way; inactive = flat fitted curve, though single readings scatter. A potency beside an inconclusive call is a rough fit, not a confirmed value.
Assay: Nrf2 qHTS screen for inhibitors; note: nearly all actives have a fitted effect of over 60% in size
Conditions: A549 ARE-Fluc reporter, luciferase luminescence, 18-24 h; activity change, negative = inhibition: at 46 µM (top of the series)
Summary of the method: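 Nrf2 activity is the BugLite luminescence, read 15 min after reagent at room temperature, following CellTiter-Fluor cytotoxicity readout (30 min, 37C). Compound titrations were applied for 18-24 h to 5000 A549 ARE_Fluc cells/well in 5% FBS OPTI-MEM.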
% is set by controls: 0 for no effect and ±100 for the full control effect; potency is the fitted concentration of half-maximal effect.

| SMILES | Potency | activity change, negative = inhibition |
| --- | --- | --- |
| COc1cc(NC(=O)c2ccc(Cl)cc2)c(OC)cc1NC(=O)CN1CCCCC1 | inconclusive: 5.17 µM [activator, partial curve, poor fit] | – |
| S=C(Nc1ccccc1)Nc1ccc2ccccc2c1 | inconclusive: 9.2 µM [activator, partial curve] | – |
| COc1ccc(NC(=O)CN(C)CC(=O)c2[nH]c(C)c(C(C)=O)c2C)cc1 | inconclusive: 29.1 µM [falling, partial curve, poor fit] | – |
| COc1cc(/C=N/NC(=O)c2ccc3nc[nH]c3c2)cc(OC)c1OC | – | inactive: -13.1% |
| N#Cc1ccsc1NC(=O)COC(=O)c1cc(Br)ccc1O | inconclusive: 23.1 µM [activator, single point] | – |
| CCOc1ccc(S(=O)(=O)N2CCN(c3ccccc3OC)CC2)c2cccnc12 | inconclusive: 18.4 µM [falling, single point] | – |
| CCOc1ccc2nc(N3CCCC(C(=O)NCc4ccc(C)cc4)C3)sc2c1 (configuration not stated) | inconclusive: 2.91 µM [activator, full curve] | – |
| O=C(NCc1ccccc1)c1cccc(NC(=O)c2ccco2)c1 | inconclusive: 20.6 µM [falling, partial curve, poor fit] | – |
| Cc1nn(-c2ccccc2)c(Cl)c1/C=N/NC(=O)c1ccco1 | inconclusive: 0.326 µM [activator, full curve, poor fit] | – |
| Cn1nc(-c2ccccc2)c(CO)c1Sc1ccccc1 | active: 25.9 µM | – |
| COc1ccccc1NC(=O)Cn1c(=O)n(Cc2nc(-c3ccccc3)no2)c(=O)c2ccccc21 | inconclusive: 11.6 µM [activator, partial curve, poor fit] | – |
| CCOc1c(OC(C)=O)ccc(/C=C/c2ccc3cccc(OC(C)=O)c3n2)c1[N+](=O)[O-] | – | inactive: 4.7% |
| CC1CCc2c(sc(NC(=O)c3cc(-c4ccc(Br)cc4)on3)c2C(N)=O)C1 (configuration not stated) | – | inactive: 18.9% |
| S=C(NCCc1ccccc1)N1CCN(Cc2ccc(Cl)c(Cl)c2)CC1 | inconclusive: 0.0517 µM [falling, full curve, poor fit] | – |
| CCOC(=O)N1CCN(C(=O)c2ccc3c(c2)N(Cc2ccccc2)CCS3)CC1 | inconclusive: 14.6 µM [falling, single point] | – |
| Cc1ccc(CN(C)C(=O)c2ccc3c(c2)NC(=O)CS3)o1 | – | inactive: -6.42% |
| COc1ccc(N(CC(=O)NCCSCc2ccco2)S(=O)(=O)c2ccccc2)cc1Cl | inconclusive: 29.1 µM [falling, single point] | – |
| O=C(c1cc(COc2c(F)cccc2F)on1)N1C[C@H]2CC[C@H]1C2 | inconclusive: 0.517 µM [activator, full curve, poor fit] | – |
| O=C(Nc1nc(-c2ccccc2)c(C(=O)c2ccccc2)s1)c1ccc(S(=O)(=O)N2CCCCC2)cc1 | active: 14.6 µM | – |
| O=C(CN1c2cccc3cccc(c23)S1(=O)=O)NCCc1ccccc1 | inconclusive: 16.4 µM [falling, single point] | – |
| N#CCCn1cc(CNCc2cccnc2)c(-c2ccccc2)n1 | – | inactive: 23.4% |
| Cc1cccc(-n2c(-c3ccco3)nc3c(cnn3-c3ccc(F)cc3)c2=O)c1 | inconclusive: 18.4 µM [falling, single point] | – |
| Nc1ccc2c(c1)nnn2-c1ccccc1 | inconclusive: 6.51 µM [activator, single point] | – |

Given tab-delimited: entries from further up.
SMILES	Potency	activity change, negative = inhibition
S=C(Nc1ccccc1)Nc1ccc2ccccc2c1	inconclusive: 9.2 µM [activator, partial curve]	–
COc1ccc(NC(=O)CN(C)CC(=O)c2[nH]c(C)c(C(C)=O)c2C)cc1	inconclusive: 29.1 µM [falling, partial curve, poor fit]	–
COc1cc(/C=N/NC(=O)c2ccc3nc[nH]c3c2)cc(OC)c1OC	–	inactive: -13.1%
N#Cc1ccsc1NC(=O)COC(=O)c1cc(Br)ccc1O	inconclusive: 23.1 µM [activator, single point]	–
CCOc1ccc(S(=O)(=O)N2CCN(c3ccccc3OC)CC2)c2cccnc12	inconclusive: 18.4 µM [falling, single point]	–

(listing goes on)

| SMILES | Potency | activity change, negative = inhibition |
| --- | --- | --- |
| O=C(Oc1c(CN2CCOCC2)cc(Cl)c2cccnc12)c1cccs1 | inconclusive: 20.6 µM [falling, single point] | – |
| COc1ccc2nc(C)cc(SCC(=O)NNC(=O)COc3cccc4ccccc34)c2c1 | inconclusive: 20.6 µM [falling, single point] | – |
| CN1CCN(S(=O)(=O)c2cccc(C(=O)O)c2)CC1 | – | inactive: 8.01% |
| Cc1ccc(NC(=O)C(c2ccc(Cl)cc2Cl)N2CCCC2)cc1 (configuration not stated) | inconclusive: 29.1 µM [falling, single point] | – |
| CNc1snc(C)c1C(=O)OCC(=O)c1ccc(Cl)cc1 | inconclusive: 23.1 µM [falling, single point] | – |
| O=C1NCC(COc2ccc(Cl)cc2)O1 (configuration not stated) | inconclusive: 29.1 µM [falling, single point] | – |
| COC(=O)c1ccccc1NC(=O)NCC1CCCO1 (configuration not stated) | – | inactive: 8.43% |
| O=C(CSc1nnc(-c2ccccc2)o1)N1CCCCC1 | inconclusive: 2.91 µM [activator, full curve] | – |
| O=C(COC(=O)c1cccc2c1C(=O)c1ccccc1C2=O)NC1CCCCC1 | inconclusive: 29.1 µM [falling, single point] | – |
| CCOC(=O)C1=C(C)C(c2cccc(Oc3ccccc3)c2)NC(=S)N1 (configuration not stated) | inconclusive: 20.6 µM [falling, single point] | – |
| Cc1cccc(C(=O)NCCC(=O)NCc2ccccc2F)c1 | – | inactive: 7.18% |
| CCOC(=O)c1c(-c2ccc(-c3ccccc3)cc2)csc1NC(=O)CCC(=O)O | inconclusive: 14.6 µM [falling, partial curve, poor fit] | – |
| c1ccc2[nH]c(-c3ccc4c(c3)OCO4)nc2c1 | inconclusive: 1.3 µM [activator, partial curve] | – |
| Cn1c(=O)c(C(=O)COc2ccc(F)cc2Cl)c(N)n(Cc2ccccc2)c1=O | inconclusive: 6.51 µM [falling, single point] | – |
| CC(C)(C)NC(=O)CCSc1nc(-c2ccc3c(c2)OCO3)cc(C(F)(F)F)n1 | inconclusive: 23.1 µM [falling, single point] | – |
| Cc1cc(SCC(=O)N2CCCC2)nc2ccccc12 | – | inactive: -17.8% |
| O=C(/C=C/c1ccccc1Cl)N(Cc1ccc(Cl)cc1)C1CCS(=O)(=O)C1 (configuration not stated) | inconclusive: 20.6 µM [falling, partial curve] | – |
| COc1ccc(NC(=O)c2oc3ccccc3c2C)cn1 | inconclusive: 5.8 µM [activator, full curve] | – |
| Cc1ccc(-c2csc(NC(=O)c3cccc([N+](=O)[O-])c3)n2)cc1 | inconclusive: 2.59 µM [falling, full curve] | – |
| Cc1ccc(NC(=O)c2ccccc2OCC(=O)Nc2ccccc2F)cc1S(=O)(=O)N(C)C | inconclusive: 23.1 µM [falling, partial curve, poor fit] | – |
| O=C1CCc2cc(S(=O)(=O)Nc3ccc4c(c3)CCC4)ccc2N1 | inconclusive: 29.1 µM [falling, partial curve, poor fit] | – |
| Cc1nnc(-c2cccc(Br)c2)c2cn(-c3ccc(Br)cc3)nc12 | active: 14.6 µM | – |
| CCC(=O)Nc1nc(C)c(-c2csc(Nc3ccccn3)n2)s1 | inconclusive: 6.51 µM [activator, single point] | – |

| SMILES | Potency | activity change, negative = inhibition |
| --- | --- | --- |
| O=C1C2C(c3ccccc3)C=CC(c3ccccc3)C2C(=O)N1CCO (configuration not stated) | inconclusive: 5.8 µM [falling, partial curve, poor fit] | – |
| COc1ccc(-n2c(=S)[nH]c3cc(C(=O)Nc4ccc(OC)c(OC)c4)ccc3c2=O)cc1 | – | inactive: 3.67% |
| CC1(C)CC(=O)C(C(C2=C(O)CC(C)(C)CC2=O)c2cccs2)C(=O)C1 (configuration not stated) | inconclusive: 16.4 µM [activator, single point] | – |
| COc1ccc(CCN2C(=S)N(c3ccc(Cl)cc3)C(=O)C2CC(N)=O)cc1OC (configuration not stated) | inconclusive: 16.4 µM [falling, partial curve, poor fit] | – |
| COc1ccc(Cc2nc3ccc(C(=O)NCC(C)(C)OC)cc3o2)cc1 | inconclusive: 3.66 µM [activator, single point] | – |
| Cc1ccc(NC(=O)Nc2ccccc2F)cc1S(=O)(=O)N1CCOCC1 | – | inactive: -13.1% |
| CCOc1ccc(NS(=O)(=O)c2ccc(C(=O)N3CCC3)cc2)cc1 | inconclusive: 16.4 µM [falling, single point] | – |
| Cc1ccc(S(=O)(=O)NNC(=O)CCC(=O)Nc2ccc(C)cc2C)cc1 | inconclusive: 32.6 µM [activator, single point] | – |
| CCc1ccc(OCC(=O)Nc2ccc(Cl)c(-c3nc4ncccc4o3)c2)cc1 | inconclusive: 20.6 µM [falling, single point] | – |
| CCCCN1CN(Cc2ccccc2)CNC1=S | – | inactive: 10.8% |
| COc1ccc2nc(C)c3c(c2c1)OC(C)C3 (configuration not stated) | – | inactive: 19.6% |
| O=C(Nc1cccc2cccnc12)c1cccs1 | inconclusive: 9.2 µM [activator, partial curve, poor fit] | – |
| O=C(COc1ccccc1)Nc1c(Cl)ccc2nsnc12 | inconclusive: 6.51 µM [falling, partial curve, poor fit] | – |
| Cc1c(C(=O)Nc2ccccc2F)cnn1-c1ccccc1 | inconclusive: 6.51 µM [activator, partial curve, poor fit] | – |
| Cc1nc(Nc2cccc(C(C)O)c2)c2nnn(Cc3ccccc3F)c2n1 (configuration not stated) | inconclusive: 32.6 µM [falling, partial curve, poor fit] | – |
| N/C(=N/OC(=O)c1ccccc1Cl)c1ncc([N+](=O)[O-])s1 | inconclusive: 4.61 µM [activator, single point] | – |
| O=C(Nc1ccc(F)cc1)N1CCc2ccccc2C1 | inconclusive: 25.9 µM [activator, partial curve, poor fit] | – |
| NC(=O)c1cc(S(=O)(=O)NCCc2ccc(S(N)(=O)=O)cc2)cs1 | – | inactive: -6.55% |
| Cc1cc(NC(=O)c2cc(C(C)C)on2)no1 | inconclusive: 2.31 µM [activator, full curve] | – |
| Cc1ccc(C(=O)CSc2nnc(CNc3nc(-c4ccccc4)cs3)n2C)cc1 | inconclusive: 29.1 µM [falling, single point] | – |
| COc1ccccc1NC(=O)Nc1ccc(Br)cn1 | inconclusive: 7.31 µM [activator, partial curve, poor fit] | – |

— PubChem BioAssay AID504444 (National Center for Advancing Translational Sciences (NCATS), 2011)
